The test in a line: qHTS Assay for Lipid Storage Modulators in Drosophila S3 Cells.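 As to cell number change: cells counted by Cell Tracker Red CMTPX staining in the red channel.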 The following applies: BODIPY lipid droplet fluorescence, 18-24 h; for cell number change: measured here: cell count max response, cells fed with added oleic acid. In a few lines:
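Laser-scanning cytometry quantifies lipid droplet accumulation (500–530 nm total intensity; droplet/cell object ratio) in oleic acid-fed (400 uM added) Drosophila S3 cells treated with a concentration series. 20 uM Triacsin C defined 100% inhibition.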
(In general: Quantitative high-throughput screening tests each substance at several concentrations.)

The mark [1] stands for this setting: measured here: lipid fluorescence (Fed channel) AC50, cells fed with added oleic acid.
[2] abbreviates: measured here: cell number channel AC50, cells fed with added oleic acid.

The other results are listed elsewhere or left out. Shown are side measurements of this screen, not its main read-out; they come without a call. Most of these compounds were active or inconclusive in the main read-out, so they are no random draw. Words in brackets tell the shape of the fitted curve; partial curves, single points and poor fits give uncertain potencies.

A word on the AC50: it is the concentration giving half of the maximal activity seen. Lower therefore signals greater potency. For `COc1ccc(Cc2nc(-c3ccc(Br)o3)no2)cc1OC`, the cell number change was -11.5%. Moreover, the AC50 under setting [1] was 32.6 µM [falling, single point]. `COc1ccc(C2C(C(=O)c3sc(C)nc3C)=C(O)C(=O)N2CCCn2ccnc2)cc1OC` (configuration not stated): the AC50 under setting [1] is 1.16 µM [falling, single point]. As for `Cc1ccc2c(CN3C(=O)NC4(CCCCC4)C3=O)cc(=O)oc2c1C`, the cell number change is -4.39%. Regarding `CCOC(=O)NC1(C(F)(F)F)N=C(c2ccccc2)NC1=O` (configuration not stated), the cell number change is -6.98%. The AC50 under setting [1] was 25.9 µM [falling, single point].

Take `O=C1CC(=O)C(n2cncn2)C(c2c(F)cccc2Cl)C1` (configuration not stated): the cell number change stood at 60.1%. Also, under setting [2], the AC50 was 16.4 µM [rising, single point]. For `O=C1CCNc2cc3ccccc3cc21`, the cell number change was -41.9%. For the same molecule, under setting [2], the AC50 was 4.61 µM [falling, full curve, poor fit]. Also, the AC50 under setting [1] is 1.16 µM [falling, partial curve]. Regarding `C(=N\c1nc2ccccc2n1CCN1CCOCC1)/c1cccs1`, the cell number change was determined as 11.5%. Besides, under setting [1], the AC50 was 25.9 µM [rising, single point].

Regarding `O=C(CSc1n[nH]c(-c2ccco2)n1)Nc1ccc(F)cc1`, the cell number change came to 16.8%. For the same molecule, under setting [1], the AC50 was 6.51 µM [falling, single point].

Consider `CN1CCN(S(=O)(=O)c2ccc(NCc3ccc4c(c3)OCO4)nc2)CC1`, for which the AC50 under setting [1] was 29.1 µM [rising, single point]. For the molecule `COc1nc(/C=C/N(C)C)c([N+](=O)[O-])c(OC)n1`, the cell number change is 4.34%. Besides, the AC50 under setting [1] was 0.00461 µM [rising, full curve, poor fit]. As for `CCCC(NC(=O)C(C)NC(=O)CO/N=C1\C=C2CCC3C4CCC(C(C)=O)[C@@]4(C)CCC3[C@@]2(C)CC1)C(=O)O` (some centres not stated), the cell number change was found to be 2.84%. The AC50 under setting [1] is 0.58 µM [falling, single point]. For `CCOc1ccc(N=CC2=C(O)CC(c3ccco3)CC2=O)cc1` (configuration not stated), the cell number change turned out to be 18.9%. The AC50 under setting [1] was 2.31 µM [rising, partial curve]. In the case of `CC(C)CNC(=S)N(Cc1ccco1)Cc1cc2cc3c(cc2[nH]c1=O)OCCO3`, the cell number change was determined as 0.114%. Take `CC1=CC(C)(C)N2C(=O)C3(C(C#N)=C(N)OC4=C3C(=O)CC(C)(C)C4)c3cc(C)cc1c32` (configuration not stated): the cell number change came out at 51.6%. The AC50 under setting [2] is 23.1 µM [rising, partial curve]. For the same molecule, the AC50 under setting [1] is 0.517 µM [falling, full curve, poor fit]. As to `N#Cc1ccc(CSc2nnc(-c3cccs3)n2-c2ccccc2)cc1`, the half-maximal activity concentration (AC50) under setting [2] is 2.91 µM [rising, partial curve] and the AC50 under setting [1] is 1.84 µM [rising, partial curve]. On to `FC(F)(Cl)c1nnc2ccc(Cl)nn12`, for which the AC50 under setting [1] was 35.5 µM [rising, single point]. With `C=CCn1cc(C(=O)N2CCc3ccccc3C2)c(=O)c2cc(S(=O)(=O)N(CC)CC)ccc21`, the cell number change turned out to be 20.4%. For the same molecule, the AC50 under setting [1] was 2.06 µM [rising, partial curve, poor fit]. As for `COc1cccc(-c2ocnc2C(=O)Nc2ccc3c(c2)CCC3)c1`, the cell number change was found to be 8.75%.

Consider `CC(C)n1c(SC2C(=O)CC(C)(C)CC2=O)nc2c1c(=O)n(C)c(=O)n2C`, for which the cell number change was -6.57%. As to `O=C(/C=C/c1ccc2c(c1)OCO2)Nc1nc(-c2ccc(F)cc2F)cs1`, the cell number change is -43.6%. For the same molecule, the AC50 under setting [2] is 29.1 µM [falling, single point]. In addition, under setting [1], the AC50 was 0.116 µM [falling, full curve, poor fit]. Turning to `COc1ccc(/C(C)=N/NC(=O)CCC(=O)Nc2ccc(Cl)cc2Cl)c(OC)c1`, the cell number change is -0.639%. The AC50 under setting [1] is 18.4 µM [rising, partial curve].

For the molecule `Nc1ccc(N=Nc2ccccc2Cl)c(N)n1`, the cell number change was -23%. The AC50 under setting [1] was 29.1 µM [falling, single point]. Take `CC(C)(C)NC(=O)NC(=O)CN1C(=O)NC(C)(c2ccccc2)C1=O` (configuration not stated): the cell number change was found to be 9.46%. For the same molecule, the AC50 under setting [1] is 29.1 µM [falling, single point]. In the case of `COC(=O)c1ccc(CSc2nc3ccc(Cl)cc3[nH]2)o1`, the AC50 under setting [2] was 2.59 µM [rising, single point].

For the molecule `O=C(Cc1nc(-c2ccc(Br)s2)cs1)NCCN1CCOCC1`, the cell number change turned out to be 4.07%. Regarding `CN(C)C(=O)CSc1cccc2cccnc12`, the cell number change is -6.2%. Further, the AC50 under setting [1] is 0.651 µM [falling, partial curve, poor fit]. Take `CCOC(=O)CCc1nn(C)c(=O)c2ccccc12`: the cell number change turned out to be 30.5%. In addition, under setting [2], the AC50 is 6.51 µM [rising, partial curve]. As for `CCN(CC)CCCNC(=O)c1csc(Nc2cccc3ccccc23)n1`, the cell number change is -4.5%. Under setting [1], the half-maximal activity concentration (AC50) was 0.82 µM [rising, single point]. `COC(=O)c1[nH]c2ccccc2c1NS(=O)(=O)c1ccc(F)c(C)c1`: the cell number change was 3.65%. For the same molecule, the AC50 under setting [1] was 6.51 µM [rising, single point]. Consider `Cc1cc(C)c(OCC(=O)OCC(=O)N2c3ccccc3CC2C)c(C)c1` (configuration not stated), for which the cell number change is -99.5%. Under setting [2], the AC50 is 20.6 µM [falling, single point]. The AC50 under setting [1] is 7.31 µM [rising, partial curve]. Regarding `CCC(C)(C)C1CCC(=NNC(=O)c2ccoc2C)CC1` (configuration not stated), the AC50 under setting [2] is 0.164 µM [rising, full curve, poor fit]. For the molecule `COc1ccc(OCCC(=O)Nc2cc3c(cc2C(=O)O)OCCCO3)cc1`, the cell number change was 50%. Further, the AC50 under setting [2] was 29.1 µM [rising, single point]. Moreover, the AC50 under setting [1] is 0.13 µM [falling, full curve, poor fit]. As for `C=CCn1c(-c2ccc(C)cc2)nc2ccccc21`, the AC50 runs as follows: under setting [2], 2.31 µM [rising, partial curve]; under setting [1], 8.2 µM [rising, partial curve].

Regarding `COc1ccc(-c2nc3ccccc3n2Cc2ccccc2)cc1`, the AC50 under setting [2] was 0.731 µM [rising, single point]. `CSc1ccc(CNC(=O)C2Cc3cc(S(=O)(=O)N4CCCCC4)ccc3N2C(C)=O)cc1` (configuration not stated): the cell number change is -28.3%. Further, the AC50 under setting [1] is 0.58 µM [rising, single point]. Turning to `O=P(O)(c1ccccc1)c1ccccc1O`, the cell number change is 2.38%. Besides, under setting [1], the AC50 was 1.3 µM [falling, full curve].

Take `O=C1CCCC(=O)C1C1c2ccccc2CCN1C(=O)CCl` (configuration not stated): the cell number change amounted to 0.12%. The AC50 under setting [1] is 29.1 µM [falling, single point]. Regarding `COc1ccc(NC(=O)NNC(=O)CCc2ccc(O)c(O)c2)cc1OC`, the cell number change is 58.8%. For the same molecule, under setting [2], the AC50 is 10.3 µM [rising, partial curve]. Further, under setting [1], the concentration at half-maximal activity (AC50) was 23.1 µM [rising, partial curve]. Turning to `CNC(=O)c1ccc(-n2cccn2)nc1`, the cell number change stood at 15.3%. Regarding `Cc1cc(NC(=O)c2ccc3c(c2)OCCO3)no1`, the cell number change was found to be 96.3%. Further, the AC50 under setting [2] was 29.1 µM [rising, single point]. Regarding `COC(=O)C1C/C(=N\NS(=O)(=O)c2ccc(C)cc2)c2ccccc2C1` (configuration not stated), under setting [1], the AC50 is 29.1 µM [rising, single point]. As to `COc1ccccc1NS(=O)(=O)c1cc(NC(=O)CCC2CCCC2)ccc1N1CCOCC1`, the cell number change is 16.7%. The AC50 under setting [1] was 29.1 µM [rising, single point]. Regarding `CC(NC(=O)c1cc(-c2ccccn2)nc2ccc(Cl)cc12)C1CCCO1` (configuration not stated), the cell number change was -15.8%. On to `COC(=O)c1cc(F)c(-n2cncn2)c(F)c1`, for which the AC50 under setting [1] was 29.1 µM [rising, single point]. As to `Cc1ccc(S(=O)(=O)N2CCCN(S(=O)(=O)C3CCS(=O)(=O)C3)CC2)cc1` (configuration not stated), the cell number change is -95.5%. Moreover, the AC50 under setting [2] was 0.103 µM [falling, full curve, poor fit]. Also, the AC50 under setting [1] is 23.1 µM [falling, single point]. In the case of `COc1ccc(C(=O)C2CCCN(Cc3cccn3-c3nccs3)C2)cc1F` (configuration not stated), the cell number change is 7.3%. Moreover, under setting [1], the AC50 was 23.1 µM [rising, single point].

Regarding `O=C(O)COc1ccccc1/C=N/NC(=O)CSc1nc2ccccc2n1Cc1ccccc1`, the cell number change came out at 22.7%. Under setting [1], the AC50 is 29.1 µM [rising, single point]. On to `CCOC(=O)Cn1c(C)c(Br)c(=O)c2cccc(C)c21`, for which the cell number change is 37.5%. The AC50 under setting [2] is 20.6 µM [rising, single point]. Also, the AC50 under setting [1] is 0.13 µM [falling, full curve, poor fit]. Consider `CC(C)(C)c1cc(CSC(=S)NC2CCS(=O)(=O)C2)c(Br)c(C(C)(C)C)c1` (configuration not stated), for which the cell number change was found to be 110%. The AC50 under setting [2] is 23.1 µM [rising, single point]. Consider `O=C(NCC1CCCO1)/C(=C\c1cccs1)NC(=O)c1ccccc1` (configuration not stated), for which the cell number change was 20.5%. Also, the AC50 under setting [1] is 0.00461 µM [rising, full curve, poor fit]. In the case of `Cc1ccc(-c2noc(C3CCCN(C(=O)c4ccccc4)C3)n2)o1` (configuration not stated), the cell number change is 5.86%.

Consider `Cc1ccc2nc3c(cc(C#N)c(=N)n3CC3CCCO3)c(=O)n2c1` (configuration not stated), for which the cell number change worked out at 27.8%. The AC50 under setting [1] was 0.164 µM [rising, full curve, poor fit]. As for `O=C(Nc1ccccc1N1CCCCC1)C1=COCCO1`, the cell number change is -25.2%. Also, the AC50 under setting [1] is 0.058 µM [falling, full curve, poor fit]. Take `O=C(Nc1cccc(O)c1)c1c(O)c2ccccc2[nH]c1=O`: the cell number change was found to be 3.11%. For `CC(=O)Nc1ccc(S(=O)(=O)NC2(C(F)(F)F)NC(=O)N(Cc3ccccc3)C2=O)cc1` (configuration not stated), the cell number change is -32.2%. Moreover, the AC50 under setting [2] was 29.1 µM [falling, single point]. `O=C(NCCN1CCOCC1)c1ccc(-c2ccccc2)cc1`: the cell number change was 6.29%. The AC50 under setting [1] is 6.51 µM [falling, single point].

Consider `C=CCN(c1ccccc1)S(=O)(=O)c1cccc(C(=O)N(CC)CC(=O)Nc2c(F)cccc2F)c1`, for which the AC50 under setting [1] is 29.1 µM [falling, single point]. For `CCOC(=O)C(C)N1C(=O)S/C(=C/c2ccc3c(c2)n(C)c(=O)n3C)C1=O` (configuration not stated), the cell number change was determined as 0.44%. The AC50 under setting [1] is 29.1 µM [falling, single point]. Turning to `Cc1nn(-c2ccccn2)c2c1C(c1c(F)cccc1Cl)C1=C(N2)c2ccccc2C1=O` (configuration not stated), the cell number change is -1.03%. Under setting [1], the AC50 was 0.326 µM [rising, full curve].

For `OC(COC(c1ccc(F)cc1)c1ccc(F)cc1)CN1CCc2ccccc2C1` (configuration not stated), the cell number change was -65.4%. Moreover, under setting [2], the AC50 is 23.1 µM [falling, single point].

For `COc1ccc(NC(=O)c2cc([N+](=O)[O-])ccc2NC(=O)CNCc2ccccn2)c(OC)c1`, the cell number change stood at 14.3%. Under setting [1], the AC50 is 29.1 µM [falling, single point].

Source of the values: PubChem BioAssay AID2685 (National Center for Advancing Translational Sciences (NCATS), 2010).
